This note sets out measurements from publication PMC5725533.

These are yes or no findings as the source states them, for the method shown. In cells and extracts the contact can be indirect. These calls come from enrichment with a bait or labelling near it, and not all partners need be listed. Tags and fused reporters may be left off the sequences shown.

The chains are these.
B1: Eml2 (protein, UniProt Q7TNG5 1-649)
chain: MSSFGIGKTKEVIFSMEEGSVKMFLRGRPVPMLIPDELAPTYSLDTRSELPSSRLKLDWVYGYRGRDCRANLYLLPTGEVVYFVASVAVLYSVEEQRQRHYLGHNDDIKCLAVHPDMVTIATGQVAGTTKEGKPLPPHVRVWDSVSLSTLHVLGLGVFDRAVCCVAFSKSNGGNLLCAVDESNDHVLSVWDWAKESKVVDSKCSNEAVLVATFHPTDPSLLITCGKSHIYFWSLEGGSLSKRQGLFEKHEKPKYVLCVTFLEGGDVVTGDSGGNLYVWGKGGNRITQEVQGAHDGGVFALCALRDGTLVSGGGRDRRVVLWGSDYSKVQEVEVPEDFGPVRTVAEGRGDTLYVGTTRNSILLGSVHTGFSLLVQGHVEELWGLATHPSRAQFVTCGQDKLVHLWSSETHQPVWSRSIEDPARSAGFHPSGSVLAVGTVTGRWLLLDTETHDLVAIHTDGNEQISVVSFSPDGAYLAVGSHDNLVYVYTVDQGGRKVSRLGKCSGHSSFITHLDWAQDSTCFVTNSGDYEILYWDPVTCKQITSADTVRNVEWATATCVLGFGVFGIWPEGADGTDINAVARSHDGKLLVSADDFGKVHLFSYPCCQPRALSHKYGGHSSHVTNVAFLWDDSMALTTGGKDTSVLQWRVA
B2: Eml4 (protein, UniProt Q3UMY5 1-988)
chain: MDGFAGSLDDSISAASTSDVQDRLSALESRVQQQEDEITVLKAALADVLRRLAISEDHVASVKKSMPSKGQPSLREAISMSCITNGSGISRKQNHTSSVSIARKETLSSAAKSGTEKKKEKPQGQREKKEDSHSNDQSPQIRASPSPQPSSQPLQINRQTPESKSSAPIKSIKRPPTAEKSHNSWENSDDSRNKLMKTVSTSKLISKVIKNADKHKDVIVNQAKMSTREKNSQEGEYIKMFMRGRPITMFIPSDVDNYDDIRTELPPEKLKLEWVYGYRGKDCRANVYLLPTGEIVYFIASVVVLFNYEERTQRHYLGHTDCVRCLAVHPDKIRIATGQIAGVDKDGRPLQPHVRVWDSVSLTTLHVIGLGTFERGVGCLDFSKADSGVHLCVIDDSNEHMLTVWDWQKKSKIAEIKTTNEVVLAVEFHPTDANTIITCGKSHIFFWTWSGNSLTRKQGIFGKYEKPKFVQCLAFLGNGDVLTGDSGGVMLIWSKTMVEPPPGKGPKGVYQINRQIKAHDGSVFTLCQMRNGMLLTGGGKDRKIILWDHDLNLEREIEVPDQYGTIRAVAEGRAEQFLVGTSRNFILRGTFNDGFQIEVQGHRDELWGLATHPFKDLLLTCAQDRQVCMWNSVEHRLEWTRLVDEPGHCADFHPSGTVVAIGTHSGRWFVLDAETRDLVSIHTDGNEQLSVMRYSVDGTLLAVGSHDNFIYLYTVLENGRKYSRYGKCTGHSSYITHLDWSPDNKHIMSNSGDYEILYWDIENGCKLIRNRSDCKDIDWTTYTCVLGFQVFGVWPEGSDGTDINALVRSHNRRVIAVADDFCKVHLFQYPCSKAKAPSHKYSAHSSHVTNVSFTHNDSHLISTGGKDMSIIQWKLVEKLPVPQNEVITDASVTKTPASSSETARPSNSPPLPPSLPLTGTAEEESRMGSSPTLVENSLEQIAEPSEEQSEWGSEDLGVVIDEEPASELSETQGATELPEEERGITPLC
B3: Nde1-like (Ndel1) (protein, UniProt Q9ERR1 1-345)
chain: MDGEDIPDFSSLKEETAYWKELSLKYKQSFQEARDELVEFQEGSRELEAELEAQLVQAEQRNRDLQADNQRLKYEVEALKEKLEHQYAQSYKQVSVLEDDLSQTRAIKEQLHKYVRELEQANDDLERAKRATIVSLEDFEQRLNQAIERNAFLESELDEKESLLVSVQRLKDEARDLRQELAVRERQQEVTRKSAPSSPTLDCEKMDSAVQASLSLPATPVGKGTENSFPSPKAIPNGFGTSPLTPSARISALNIVGDLLRKVGALESKLAACRNFAKDQASRKSYVPGSVNCGVMNSNGPECPRSGRATFFHKGAVNGFDPAPPPPGLGSSRPSSAPGMLPLSV

The assay addresses T1, GST-tagged EML1 N-ter (EML1 N-terminal domain, amino acids 1-174) (UniProt O00423).
T1 sequence: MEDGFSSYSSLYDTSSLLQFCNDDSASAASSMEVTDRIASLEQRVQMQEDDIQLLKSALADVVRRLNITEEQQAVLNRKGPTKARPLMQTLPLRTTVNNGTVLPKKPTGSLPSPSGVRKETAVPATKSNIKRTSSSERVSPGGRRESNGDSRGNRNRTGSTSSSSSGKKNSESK
Kind of assay: affinity purification with mass spectrometry; purified GST-EML1 N-ter (4 μg) coupled to Glutathione-Agarose resin, incubated overnight with E13.5 mouse embryonic cortex extract; lysis buffer Tris HCl 50 mM, NaCl 150 mM, EDTA 1 mM pH 8, 1% NP-40; bound fractions by nano LC-MS/MS, label-free XIC quantification against GST control; two independent pull-downs; only the target purified.
Take B1: the binding result is “binds”.

On to B2, for which the binding entry is on record as “binds”.

As for B3, the binding result is recorded as “binds”.
